For the data set, the target named is FMRP RNA-AE (KH1 GKKG / KH2 RNA-KO, KH1-2 di-domain) T236K,H237K,K299D,N300D,del331-396 (human (hFMRP)) (UniProt Q06787). As to the kind of experiment: NMR titration. The note with it: relative to P1, Kd value only in figure; NMR titrations: 50 uM 15N-protein, 10 mM phosphate pH 6.9, 40 mM NaCl, 0.5 mM TCEP, protein:RNA 1:0 to 1:12; temperature not given; recombinant protein; residues 216-425; protein details: N-terminal 6xHis, cleaved with HRV 3C.

The exact form of at least one protein or probe is not confirmed. The direction of at least one scale is not stated here.

In the case of UGGAC, the binding signal (fold higher affinity than WT) was determined as 40.

For the origin of these results see paper PMC10326445.
